Measurements published in the supplement of paper PMC10849652.
Some of the results follow.

Sequences of proteins named here, by UniProt entry; tags and fusion partners are left off. A change or cut given only in a name is not applied to a line headed by its entry.
UniProt Q9GZP4: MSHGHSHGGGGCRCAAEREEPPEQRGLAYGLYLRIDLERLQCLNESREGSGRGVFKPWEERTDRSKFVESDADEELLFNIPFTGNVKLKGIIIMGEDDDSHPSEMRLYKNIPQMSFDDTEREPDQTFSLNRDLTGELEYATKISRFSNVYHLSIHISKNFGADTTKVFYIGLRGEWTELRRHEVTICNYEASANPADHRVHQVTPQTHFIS
UniProt O43164: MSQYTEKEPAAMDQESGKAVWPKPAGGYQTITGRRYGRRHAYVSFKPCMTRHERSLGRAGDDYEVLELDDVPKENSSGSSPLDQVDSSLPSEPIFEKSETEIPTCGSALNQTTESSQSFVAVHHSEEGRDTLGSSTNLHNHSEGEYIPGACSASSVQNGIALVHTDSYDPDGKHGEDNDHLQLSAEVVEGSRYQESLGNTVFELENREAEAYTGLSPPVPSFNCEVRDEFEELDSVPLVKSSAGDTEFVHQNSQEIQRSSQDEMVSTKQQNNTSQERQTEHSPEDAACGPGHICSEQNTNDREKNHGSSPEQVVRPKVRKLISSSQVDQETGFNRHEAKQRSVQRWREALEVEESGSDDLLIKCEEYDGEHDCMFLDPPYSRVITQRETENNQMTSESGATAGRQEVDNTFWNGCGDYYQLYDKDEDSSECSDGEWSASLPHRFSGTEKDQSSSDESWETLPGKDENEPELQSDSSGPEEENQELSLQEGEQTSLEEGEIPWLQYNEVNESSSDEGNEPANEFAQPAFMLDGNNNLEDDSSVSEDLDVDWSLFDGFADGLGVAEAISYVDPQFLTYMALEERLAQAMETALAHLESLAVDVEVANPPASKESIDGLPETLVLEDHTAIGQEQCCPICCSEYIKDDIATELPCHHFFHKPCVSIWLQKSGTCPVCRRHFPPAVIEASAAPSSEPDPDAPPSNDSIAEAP
UniProt Q96S99: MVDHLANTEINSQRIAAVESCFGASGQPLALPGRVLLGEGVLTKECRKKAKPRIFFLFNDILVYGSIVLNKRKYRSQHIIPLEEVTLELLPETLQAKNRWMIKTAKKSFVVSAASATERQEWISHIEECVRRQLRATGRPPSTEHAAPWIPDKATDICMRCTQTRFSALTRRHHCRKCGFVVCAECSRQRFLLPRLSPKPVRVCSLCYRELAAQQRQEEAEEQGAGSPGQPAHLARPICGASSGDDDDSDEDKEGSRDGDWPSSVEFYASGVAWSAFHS
UniProt P00558: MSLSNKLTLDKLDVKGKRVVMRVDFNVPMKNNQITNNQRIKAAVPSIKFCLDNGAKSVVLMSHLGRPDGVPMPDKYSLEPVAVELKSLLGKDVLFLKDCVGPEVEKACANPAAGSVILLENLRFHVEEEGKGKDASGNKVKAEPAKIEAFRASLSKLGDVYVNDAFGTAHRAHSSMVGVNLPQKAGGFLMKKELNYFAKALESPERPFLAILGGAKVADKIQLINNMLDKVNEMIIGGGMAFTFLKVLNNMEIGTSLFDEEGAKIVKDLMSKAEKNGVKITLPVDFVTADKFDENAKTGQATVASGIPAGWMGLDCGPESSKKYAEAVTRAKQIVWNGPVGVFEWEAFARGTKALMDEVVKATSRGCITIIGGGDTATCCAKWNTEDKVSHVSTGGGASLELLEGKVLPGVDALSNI
UniProt P51178: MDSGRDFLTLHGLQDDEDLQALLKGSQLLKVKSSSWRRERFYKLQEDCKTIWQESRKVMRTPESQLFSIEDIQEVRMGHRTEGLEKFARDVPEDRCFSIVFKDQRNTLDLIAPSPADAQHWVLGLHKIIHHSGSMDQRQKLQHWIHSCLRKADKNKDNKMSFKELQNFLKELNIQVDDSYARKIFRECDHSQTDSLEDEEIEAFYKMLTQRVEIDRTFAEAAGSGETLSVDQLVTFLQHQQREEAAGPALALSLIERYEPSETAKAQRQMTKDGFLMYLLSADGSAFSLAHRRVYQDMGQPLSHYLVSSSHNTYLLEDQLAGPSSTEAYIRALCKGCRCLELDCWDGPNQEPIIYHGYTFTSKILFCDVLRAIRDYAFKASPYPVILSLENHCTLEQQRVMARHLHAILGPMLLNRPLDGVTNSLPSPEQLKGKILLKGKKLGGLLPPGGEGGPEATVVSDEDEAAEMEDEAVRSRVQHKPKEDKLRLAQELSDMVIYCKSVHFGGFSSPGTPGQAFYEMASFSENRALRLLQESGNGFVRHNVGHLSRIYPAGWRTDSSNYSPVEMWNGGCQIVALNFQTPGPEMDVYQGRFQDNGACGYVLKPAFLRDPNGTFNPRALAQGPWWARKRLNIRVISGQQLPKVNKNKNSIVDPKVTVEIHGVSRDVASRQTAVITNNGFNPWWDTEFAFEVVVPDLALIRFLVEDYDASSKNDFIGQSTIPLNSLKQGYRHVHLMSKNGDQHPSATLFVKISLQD
UniProt Q9NXJ5: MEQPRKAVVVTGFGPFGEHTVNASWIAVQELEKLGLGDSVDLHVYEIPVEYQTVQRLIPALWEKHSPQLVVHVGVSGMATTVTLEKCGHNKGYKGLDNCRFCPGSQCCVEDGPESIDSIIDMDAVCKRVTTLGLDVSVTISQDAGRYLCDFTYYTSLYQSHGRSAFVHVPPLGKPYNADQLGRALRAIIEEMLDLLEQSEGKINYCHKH
UniProt P53609, whole entry, looked up: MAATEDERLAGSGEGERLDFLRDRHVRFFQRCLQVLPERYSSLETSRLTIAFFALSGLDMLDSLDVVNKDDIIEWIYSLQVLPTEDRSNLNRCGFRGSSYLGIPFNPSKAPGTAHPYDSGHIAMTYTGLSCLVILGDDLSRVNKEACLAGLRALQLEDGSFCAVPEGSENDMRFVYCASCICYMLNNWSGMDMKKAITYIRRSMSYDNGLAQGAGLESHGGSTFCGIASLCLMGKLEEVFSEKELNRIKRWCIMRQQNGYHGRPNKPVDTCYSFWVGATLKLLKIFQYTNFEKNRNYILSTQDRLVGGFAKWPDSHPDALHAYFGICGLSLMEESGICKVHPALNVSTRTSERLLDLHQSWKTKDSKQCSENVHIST
UniProt Q9NRX4: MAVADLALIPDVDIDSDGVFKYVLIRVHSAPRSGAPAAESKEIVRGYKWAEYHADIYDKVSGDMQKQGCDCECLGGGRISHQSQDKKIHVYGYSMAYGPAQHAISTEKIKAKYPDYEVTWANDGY
UniProt P42338: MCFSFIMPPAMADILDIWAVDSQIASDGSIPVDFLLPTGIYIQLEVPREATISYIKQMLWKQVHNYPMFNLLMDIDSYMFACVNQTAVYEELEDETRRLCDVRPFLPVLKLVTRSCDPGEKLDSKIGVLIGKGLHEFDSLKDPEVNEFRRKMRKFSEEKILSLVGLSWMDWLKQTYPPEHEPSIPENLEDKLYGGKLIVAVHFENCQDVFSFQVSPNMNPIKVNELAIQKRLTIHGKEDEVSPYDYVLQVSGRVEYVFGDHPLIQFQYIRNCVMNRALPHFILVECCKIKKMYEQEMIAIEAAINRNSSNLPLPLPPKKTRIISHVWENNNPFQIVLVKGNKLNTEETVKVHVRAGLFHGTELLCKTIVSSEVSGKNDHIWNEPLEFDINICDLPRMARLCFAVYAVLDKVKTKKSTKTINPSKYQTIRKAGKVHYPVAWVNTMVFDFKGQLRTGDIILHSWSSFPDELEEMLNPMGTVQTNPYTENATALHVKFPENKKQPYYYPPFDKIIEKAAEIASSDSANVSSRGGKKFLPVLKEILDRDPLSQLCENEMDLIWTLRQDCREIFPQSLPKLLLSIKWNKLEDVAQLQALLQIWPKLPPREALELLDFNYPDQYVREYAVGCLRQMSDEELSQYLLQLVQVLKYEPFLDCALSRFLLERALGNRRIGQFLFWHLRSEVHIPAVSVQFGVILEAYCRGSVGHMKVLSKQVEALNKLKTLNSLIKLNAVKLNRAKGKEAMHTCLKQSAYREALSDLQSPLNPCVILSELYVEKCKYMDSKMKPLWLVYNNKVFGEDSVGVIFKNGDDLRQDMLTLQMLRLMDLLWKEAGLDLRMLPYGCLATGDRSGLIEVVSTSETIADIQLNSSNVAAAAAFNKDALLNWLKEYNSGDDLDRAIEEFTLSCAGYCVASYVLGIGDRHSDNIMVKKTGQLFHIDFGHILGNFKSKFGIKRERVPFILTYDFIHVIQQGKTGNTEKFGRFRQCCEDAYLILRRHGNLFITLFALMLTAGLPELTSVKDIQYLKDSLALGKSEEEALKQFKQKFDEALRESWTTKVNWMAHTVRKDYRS
UniProt P0C869: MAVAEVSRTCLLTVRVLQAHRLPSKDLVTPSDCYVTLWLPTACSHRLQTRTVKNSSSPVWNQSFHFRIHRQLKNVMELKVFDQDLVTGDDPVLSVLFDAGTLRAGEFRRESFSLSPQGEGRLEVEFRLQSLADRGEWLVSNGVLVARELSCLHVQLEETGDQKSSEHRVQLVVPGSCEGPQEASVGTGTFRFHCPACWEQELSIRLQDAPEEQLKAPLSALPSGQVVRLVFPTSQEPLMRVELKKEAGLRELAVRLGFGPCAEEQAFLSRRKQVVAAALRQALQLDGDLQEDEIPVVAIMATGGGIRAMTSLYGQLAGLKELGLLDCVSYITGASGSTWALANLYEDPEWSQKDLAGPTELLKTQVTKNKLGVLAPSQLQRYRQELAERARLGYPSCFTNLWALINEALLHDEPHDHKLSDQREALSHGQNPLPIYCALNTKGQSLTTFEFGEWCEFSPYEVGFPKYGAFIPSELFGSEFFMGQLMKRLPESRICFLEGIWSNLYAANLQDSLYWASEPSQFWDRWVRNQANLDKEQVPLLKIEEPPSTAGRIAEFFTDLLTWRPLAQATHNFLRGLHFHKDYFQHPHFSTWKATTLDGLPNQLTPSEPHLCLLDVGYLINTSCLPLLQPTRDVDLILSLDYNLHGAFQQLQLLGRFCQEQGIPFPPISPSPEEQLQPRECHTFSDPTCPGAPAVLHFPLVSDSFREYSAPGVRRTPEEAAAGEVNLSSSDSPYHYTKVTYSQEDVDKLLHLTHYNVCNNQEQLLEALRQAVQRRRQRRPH
UniProt O00459, whole entry, looked up: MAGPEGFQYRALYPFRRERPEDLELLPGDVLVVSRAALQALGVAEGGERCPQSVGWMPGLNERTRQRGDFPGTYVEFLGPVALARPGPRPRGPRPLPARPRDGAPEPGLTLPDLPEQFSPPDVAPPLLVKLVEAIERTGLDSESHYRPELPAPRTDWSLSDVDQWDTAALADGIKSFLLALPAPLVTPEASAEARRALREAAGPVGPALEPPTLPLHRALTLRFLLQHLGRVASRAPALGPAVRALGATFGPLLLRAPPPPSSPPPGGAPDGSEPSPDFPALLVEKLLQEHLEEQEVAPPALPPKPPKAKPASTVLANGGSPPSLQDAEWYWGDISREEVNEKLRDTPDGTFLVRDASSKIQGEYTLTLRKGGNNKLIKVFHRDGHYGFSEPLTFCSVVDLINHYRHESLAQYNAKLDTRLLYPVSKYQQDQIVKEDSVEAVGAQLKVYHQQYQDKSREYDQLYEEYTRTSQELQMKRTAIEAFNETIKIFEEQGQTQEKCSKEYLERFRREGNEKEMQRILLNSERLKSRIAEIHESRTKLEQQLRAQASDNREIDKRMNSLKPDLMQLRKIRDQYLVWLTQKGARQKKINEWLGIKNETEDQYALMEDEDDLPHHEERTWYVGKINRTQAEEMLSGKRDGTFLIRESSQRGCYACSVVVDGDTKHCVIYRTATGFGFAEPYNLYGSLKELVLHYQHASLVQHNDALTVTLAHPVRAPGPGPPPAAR
UniProt Q9Y263: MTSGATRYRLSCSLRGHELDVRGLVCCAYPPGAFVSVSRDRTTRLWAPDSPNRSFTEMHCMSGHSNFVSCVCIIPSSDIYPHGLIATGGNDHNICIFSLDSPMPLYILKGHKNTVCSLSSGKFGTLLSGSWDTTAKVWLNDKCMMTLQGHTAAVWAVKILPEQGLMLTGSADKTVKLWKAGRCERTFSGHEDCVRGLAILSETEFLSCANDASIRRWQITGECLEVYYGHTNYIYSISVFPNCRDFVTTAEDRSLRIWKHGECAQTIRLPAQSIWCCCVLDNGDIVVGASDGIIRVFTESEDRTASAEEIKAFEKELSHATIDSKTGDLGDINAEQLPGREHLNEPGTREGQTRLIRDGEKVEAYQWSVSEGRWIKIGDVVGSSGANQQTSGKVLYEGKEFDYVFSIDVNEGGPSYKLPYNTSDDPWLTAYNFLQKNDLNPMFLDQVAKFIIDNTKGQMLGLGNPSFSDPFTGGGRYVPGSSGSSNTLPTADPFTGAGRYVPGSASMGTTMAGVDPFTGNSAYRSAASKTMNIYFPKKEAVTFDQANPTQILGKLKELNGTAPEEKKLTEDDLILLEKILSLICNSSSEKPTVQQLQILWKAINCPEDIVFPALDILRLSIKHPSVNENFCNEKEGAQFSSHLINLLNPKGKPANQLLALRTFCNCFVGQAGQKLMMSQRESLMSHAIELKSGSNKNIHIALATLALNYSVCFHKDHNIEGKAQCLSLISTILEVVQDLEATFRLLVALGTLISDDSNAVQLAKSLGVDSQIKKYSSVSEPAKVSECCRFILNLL

How the values were obtained:
Test in all cases: log2 fold change, soluble protein after heating vs DMSO (PISA); higher = thermal stabilisation; K562 lysate, 10 uM; active = over 0.2 and 3.5 SD of the protein, either way, in both replicates (recomputed)
erlotinib = compound: C#Cc1cccc(Nc2ncnc3cc(OCCOC)c(OCCOC)cc23)c1 [erlotinib]
In short: (§1)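 Dounce homogenisation of K562 pellets in PBS pH 7.4 with 1 mM MgCl2 produced a crude extract, used at 1 mg/mL protein. Exposure to 10 μM compound lasted 30 min, and aliquots were then heated for 3 min across 48°C-58°C, pooled and brought to 0.5% NP-40 at 4°C. The supernatant after 21,000xg for 90 min was quantified by TMTpro 16plex LC-MS/MS with channel sums equalised. Duplicate values are given as log-two fold change in thermal stability relative to solvent controls.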

[1] = compound: C/C(=N\NC(=O)C1=CC(=CC=C1)S(=O)(=O)N2CCOCC2)/C3=C(C=CC(=C3)Cl)O
In short: as §1

[2] = compound: C1=CC(=CC=C1C2=NC3=C(N2)C=C(C=C3)C(=O)N)OC4=CC=C(C=C4)Cl
In short: as §1

[3] = compound: C1=CC2=C(C=CC(=C2)/C=C\3/C(=O)NC(=NCC4=CC=CS4)S3)N=C1
In short: as §1

[4] = compound: C1=CC2=NC=CN=C2C=C1/C=C/3\C(=O)NC(=O)S3
In short: as §1

[5] = compound: C1=CC=C(C=C1)C2=NC(=C(N2)C3=CC=NC=C3)C4=CC(=C(C=C4)Cl)O
In short: as §1

[6] = compound: C1=CC=C2C(=C1)C3=NNC4=CC=CC(=C43)C2=O
In short: as §1

[7] = compound: C1CCN(C1)C(=O)NC2=CC=CC(=C2)NC3=NC=C(C(=N3)NCCC4=CN=CN4)Br
In short: as §1

[8] = compound: C1CN(CCC1(CC2=CC=C(C=C2)Cl)N)C3=NC=NC4=C3C=CN4
In short: as §1

IRAK-1-4 Inhibitor I = compound: C1COCCN1CCN2C3=CC=CC=C3N=C2NC(=O)C4=CC(=CC=C4)[N+](=O)[O-] [IRAK-1-4 Inhibitor I]
In short: as §1

ibrutinib = compound: C=CC(=O)N1CCC[C@@H](n2nc(-c3ccc(Oc4ccccc4)cc3)c3c(N)ncnc32)C1 [ibrutinib]
In short: as §1

[9] = compound: CC(=O)c1cnc2ccc(-c3cc(Cl)c(O)c(Cl)c3)nc2c1N[C@H]1CC[C@H](CN(C)C)CC1
In short: as §1

ralimetinib = compound: CC(C)(C)Cn1c(N)nc2ccc(-c3[nH]c(C(C)(C)C)nc3-c3ccc(F)cc3)nc21 [ralimetinib]
In short: as §1

[10] = compound: CC(C)(O)CC(=O)NCCn1ccc2ncnc(Nc3ccc(Oc4cccc(C(F)(F)F)c4)c(Cl)c3)c21
In short: as §1

[11] = compound: CC(C)C1=C2N=C(C=C(N2N=C1)NCC3=CC=CC=C3)NCCCCCCN
In short: as §1

[12] = compound: CC1=C(C(CC(=O)N1)C2=CC=C(C=C2)C(F)(F)F)C(=O)NC3=C(C=C4C(=C3)C=NN4)F
In short: as §1

[13] = compound: CC1=C(C2=C(C=C1)C(=O)C3=CC=CC=C3N2CCCN)C
In short: as §1

[14] = compound: CC1=C(C=C(C=C1)NC(=O)C2=CC(=CC=C2)C(C)(C)C#N)NC3=CC4=C(C=C3)N=CN(C4=O)C
In short: as §1

[15] = compound: CC1=C(C=C(C=C1)NC(=O)C2=CC(=CC=C2)N(C)C)NC(=O)C3=CC=C(C=C3)O
In short: as §1

[16] = compound: CC1=CC=C(C=C1)SC2=C3C=C(SC3=CN=C2)C(=O)N
In short: as §1

Measured: log2 fold change

PITHD1 (UniProt Q9GZP4)
inactive: erlotinib 0.005 | [1] 0.005 | [2] 0.006 | [3] -0.004 | [4] 0.003 | [5] -0.005 | [6] -0.08 | [7] 0.012 | [8] -0.002 | IRAK-1-4 Inhibitor I 0.031 | ibrutinib -0.002 | [9] 0.018 | ralimetinib 0.045 | [10] -0.023 | [11] -0.037 | [12] -0.017 | [13] -0.02 | [14] 0.018 | [15] -0.011 | [16] -0.03

PJA2 (UniProt O43164)
inactive: erlotinib 0.019 | [1] -0.07 | [2] -0.029 | [3] -0.004 | [4] 0.018 | [5] 0.019 | [6] 0.028 | [7] -0.019 | [8] 0.027 | IRAK-1-4 Inhibitor I 0.039 | ibrutinib 0.016 | [9] 0.006 | ralimetinib 0.017 | [10] -0.038 | [11] -0.068 | [12] -0.055 | [13] -0.02 | [14] 0.045 | [15] 0.013 | [16] -0.032

PLEKHF1 (UniProt Q96S99)
inactive: erlotinib 0.027 | [1] 0.032 | [2] -0.067 | [3] 0.006 | [4] 0.05 | [5] 0.017 | [6] -0.019 | [7] -0.032 | [8] 0.029 | IRAK-1-4 Inhibitor I -0.024 | ibrutinib -0.004 | [9] 0.015 | ralimetinib 0.053 | [10] -0.042 | [11] 0.002 | [12] -0.069 | [13] -0.025 | [14] -0.002 | [15] -0.017 | [16] 0.015

PLD1 (UniProt Q13393)
inactive: erlotinib -0.014 | [1] -0.001 | [2] -0.058 | [3] 0.01 | [4] -0.003 | [5] -0.016 | [6] 0.092 | [7] -0.004 | [8] 0.008 | IRAK-1-4 Inhibitor I 0.012 | ibrutinib 0.013 | [9] -0.009 | ralimetinib 0.001 | [10] -0.011 | [11] 0.012 | [12] 0.051 | [13] 0 | [14] 0.007 | [15] 0.033 | [16] -0.001

PGK1 (UniProt P00558)
inactive: erlotinib -0.007 | [1] 0.026 | [2] -0.011 | [3] -0.026 | [4] -0.04 | [5] -0.003 | [6] 0.008 | [7] 0.002 | [8] 0.011 | IRAK-1-4 Inhibitor I -0.002 | ibrutinib -0.002 | [9] 0.014 | ralimetinib -0.008 | [10] 0.002 | [11] -0.006 | [12] -0.035 | [13] 0.004 | [14] -0.027 | [15] -0.015 | [16] 0.004

Two successive records already listed, quoted:
PITHD1 (UniProt Q9GZP4)
inactive: erlotinib 0.005 | [1] 0.005 | [2] 0.006 | [3] -0.004 | [4] 0.003 | [5] -0.005 | [6] -0.08 | [7] 0.012 | [8] -0.002 | IRAK-1-4 Inhibitor I 0.031 | ibrutinib -0.002 | [9] 0.018 | ralimetinib 0.045 | [10] -0.023 | [11] -0.037 | [12] -0.017 | [13] -0.02 | [14] 0.018 | [15] -0.011 | [16] -0.03

PJA2 (UniProt O43164)
inactive: erlotinib 0.019 | [1] -0.07 | [2] -0.029 | [3] -0.004 | [4] 0.018 | [5] 0.019 | [6] 0.028 | [7] -0.019 | [8] 0.027 | IRAK-1-4 Inhibitor I 0.039 | ibrutinib 0.016 | [9] 0.006 | ralimetinib 0.017 | [10] -0.038 | [11] -0.068 | [12] -0.055 | [13] -0.02 | [14] 0.045 | [15] 0.013 | [16] -0.032

Next part:

PLCD1 isoform 2 (UniProt P51178)
inactive: erlotinib -0.026 | [1] 0.083 | [2] -0.007 | [3] 0.006 | [4] -0.015 | [5] 0.006 | [6] -0.037 | [7] -0.07 | [8] -0.04 | IRAK-1-4 Inhibitor I 0.033 | ibrutinib -0.032 | [9] -0.007 | ralimetinib 0.009 | [10] -0.017 | [11] -0.017 | [12] -0.008 | [13] 0.026 | [14] 0.102 | [15] 0.014 | [16] 0.026

PIKFYVE (UniProt Q9Y2I7)
inactive: erlotinib -0.026 | [1] -0.008 | [2] -0.01 | [3] 0.005 | [4] -0.011 | [5] 0.03 | [6] -0.034 | [7] -0.039 | [8] 0.035 | IRAK-1-4 Inhibitor I -0.004 | ibrutinib 0.019 | [9] -0.012 | ralimetinib 0.011 | [10] -0.012 | [11] 0 | [12] 0.042 | [13] 0.003 | [14] -0.044 | [15] 0.016 | [16] -0.004

PGPEP1 (UniProt Q9NXJ5)
inactive: erlotinib -0.003 | [1] 0.102 | [2] -0.053 | [3] -0.046 | [4] 0.013 | [5] 0.014 | [6] -0.018 | [7] -0.059 | [8] 0.001 | IRAK-1-4 Inhibitor I -0.003 | ibrutinib -0.051 | [9] 0.02 | ralimetinib -0.013 | [10] 0.013 | [11] 0.043 | [12] -0.078 | [13] 0.015 | [14] 0.123 | [15] -0.034 | [16] -0.053

PGGT1B (UniProt P53609)
inactive: erlotinib -0.02 | [1] 0.039 | [2] -0.076 | [3] -0.011 | [4] 0.047 | [5] 0.14 | [6] 0.045 | [7] 0.008 | [8] -0.018 | IRAK-1-4 Inhibitor I -0.006 | ibrutinib -0.018 | [9] 0.004 | ralimetinib -0.015 | [10] 0.03 | [11] -0.092 | [12] 0.002 | [13] 0.032 | [14] -0.039 | [15] -0.011 | [16] 0.007

PHPT1 (UniProt Q9NRX4)
inactive: erlotinib 0.019 | [1] 0.095 | [2] -0.062 | [3] -0.02 | [4] -0.014 | [5] 0.001 | [6] 0.036 | [7] 0.04 | [8] 0.032 | IRAK-1-4 Inhibitor I -0.047 | ibrutinib -0.011 | [9] 0.032 | ralimetinib -0.037 | [10] 0.039 | [11] -0.038 | [12] -0.067 | [13] 0.005 | [14] -0.024 | [15] -0.029 | [16] 0.032

PIK3CB (UniProt P42338)
inactive: erlotinib -0.024 | [1] -0.014 | [2] -0.045 | [3] 0.159 | [4] 0.412 | [5] 0.019 | [6] 0.095 | [7] 0.002 | [8] 0.052 | IRAK-1-4 Inhibitor I 0.037 | ibrutinib -0.009 | [9] 0.388 | ralimetinib -0.011 | [10] -0.005 | [11] -0.076 | [12] -0.003 | [13] 0.035 | [14] -0.012 | [15] 0.056 | [16] 0.018

PLA2G4B isoform 6 (UniProt P0C869)
inactive: erlotinib 0.099 | [1] 0.064 | [2] 0.048 | [3] -0.099 | [4] 0.023 | [5] 0.062 | [6] -0.021 | [7] -0.011 | [8] 0.026 | IRAK-1-4 Inhibitor I 0.065 | ibrutinib -0.029 | [9] -0.046 | ralimetinib -0.17 | [10] -0.15 | [11] 0 | [12] -0.047 | [13] -0.149 | [14] 0.34 | [15] -0.005 | [16] -0.052

PLEC (UniProt Q15149)
inactive: erlotinib 0.008 | [1] 0 | [2] -0.027 | [3] -0.027 | [4] -0.025 | [5] -0.051 | [6] -0.048 | [7] 0.006 | [8] -0.002 | IRAK-1-4 Inhibitor I -0.031 | ibrutinib 0.005 | [9] 0.001 | ralimetinib 0.044 | [10] 0.02 | [11] -0.001 | [12] 0.012 | [13] 0.104 | [14] -0.023 | [15] 0.051 | [16] -0.008

PGM2 (UniProt Q96G03)
inactive: erlotinib -0.012 | [1] 0.002 | [2] 0.035 | [3] 0.001 | [4] 0.012 | [5] 0 | [6] 0.026 | [7] -0.007 | [8] 0.022 | IRAK-1-4 Inhibitor I -0.007 | ibrutinib -0.008 | [9] 0.013 | ralimetinib -0.021 | [10] -0.003 | [11] -0.009 | [12] -0.027 | [13] -0.026 | [14] 0.012 | [15] -0.017 | [16] -0.01

PIK3R2 (UniProt O00459)
inactive: erlotinib -0.022 | [1] -0.02 | [2] -0.008 | [3] 0.097 | [4] 0.251 | [5] -0.09 | [6] 0.047 | [7] 0.068 | [8] -0.059 | IRAK-1-4 Inhibitor I -0.01 | ibrutinib -0.041 | [9] 0.242 | ralimetinib 0.11 | [10] 0.029 | [11] -0.028 | [12] 0.008 | [13] 0.01 | [14] 0 | [15] 0.07 | [16] 0.019

PLAA (UniProt Q9Y263)
inactive: erlotinib -0.022 | [1] 0.012 | [2] 0.025 | [3] 0.005 | [4] -0.002 | [5] -0.004 | [6] 0.006 | [7] -0.008 | [8] -0.007 | IRAK-1-4 Inhibitor I -0.008 | ibrutinib 0.01 | [9] 0.008 | ralimetinib 0.012 | [10] -0.018 | [11] -0.006 | [12] 0.031 | [13] 0.009 | [14] 0.017 | [15] 0.016 | [16] 0.012
